No constants are given. Whether binding was seen depends on the method and setting. Binding seen in cells or lysates may run through a third protein. Some results given as binding are weak or reduced against the parent protein; the word gives no strength.
B1: 14-3-3γ (protein, UniProt P61981 1-247)
chain: MVDREQLVQKARLAEQAERYDDMAAAMKNVTELNEPLSNEERNLLSVAYKNVVGARRSSWRVISSIEQKTSADGNEKKIEMVRAYREKIEKELEAVCQDVLSLLDNYLIKNCSETQYESKVFYLKMKGDYYRYLAEVATGEKRATVVESSEKAYSEAHEISKEHMQPTHPIRLGLALNYSVFYYEIQNAPEQACHLAKTAFDDAIAELDTLNEDSYKDSTLIMQLLRDNLTLWTSDQQDDDGGEGNN
B2: 14-3-3η (protein, UniProt Q04917 1-246)
chain: MGDREQLLQRARLAEQAERYDDMASAMKAVTELNEPLSNEDRNLLSVAYKNVVGARRSSWRVISSIEQKTMADGNEKKLEKVKAYREKIEKELETVCNDVLSLLDKFLIKNCNDFQYESKVFYLKMKGDYYRYLAEVASGEKKNSVVEASEAAYKEAFEISKEQMQPTHPIRLGLALNFSVFYYEIQNAPEQACLLAKQAFDDAIAELDTLNEDSYKDSTLIMQLLRDNLTLWTSDQQDEEAGEGN
B3: RIG-I (endogenous), O95786 1-925 (protein)
chain: MTTEQRRSLQAFQDYIRKTLDPTYILSYMAPWFREEEVQYIQAEKNNKGPMEAATLFLKFLLELQEEGWFRGFLDALDHAGYSGLYEAIESWDFKKIEKLEEYRLLLKRLQPEFKTRIIPTDIISDLSECLINQECEEILQICSTKGMMAGAEKLVECLLRSDKENWPKTLKLALEKERNKFSELWIVEKGIKDVETEDLEDKMETSDIQIFYQEDPECQNLSENSCPPSEVSDTNLYSPFKPRNYQLELALPAMKGKNTIICAPTGCGKTFVSLLICEHHLKKFPQGQKGKVVFFANQIPVYEQQKSVFSKYFERHGYRVTGISGATAENVPVEQIVENNDIIILTPQILVNNLKKGTIPSLSIFTLMIFDECHNTSKQHPYNMIMFNYLDQKLGGSSGPLPQVIGLTASVGVGDAKNTDEALDYICKLCASLDASVIATVKHNLEELEQVVYKPQKFFRKVESRISDKFKYIIAQLMRDTESLAKRICKDLENLSQIQNREFGTQKYEQWIVTVQKACMVFQMPDKDEESRICKALFLYTSHLRKYNDALIISEHARMKDALDYLKDFFSNVRAAGFDEIEQDLTQRFEEKLQELESVSRDPSNENPKLEDLCFILQEEYHLNPETITILFVKTRALVDALKNWIEGNPKLSFLKPGILTGRGKTNQNTGMTLPAQKCILDAFKASGDHNILIATSVADEGIDIAQCNLVILYEYVGNVIKMIQTRGRGRARGSKCFLLTSNAGVIEKEQINMYKEKMMNDSILRLQTWDEAVFREKILHIQTHEKFIRDSQEKPKPVPDKENKKLLCRKCKALACYTADVRVIEECHYTVLGDAFKECFVSRPHPKPKQFSSFEKRAKIFCARQNCSHDWGIHVKYKTFEIPVIKIESFVVEDIATGVQTLYSKWKDFHFEKIPFDPAEMSK
B4: RIG-I (endogenous) (protein, UniProt O95786 1-925)
chain: MTTEQRRSLQAFQDYIRKTLDPTYILSYMAPWFREEEVQYIQAEKNNKGPMEAATLFLKFLLELQEEGWFRGFLDALDHAGYSGLYEAIESWDFKKIEKLEEYRLLLKRLQPEFKTRIIPTDIISDLSECLINQECEEILQICSTKGMMAGAEKLVECLLRSDKENWPKTLKLALEKERNKFSELWIVEKGIKDVETEDLEDKMETSDIQIFYQEDPECQNLSENSCPPSEVSDTNLYSPFKPRNYQLELALPAMKGKNTIICAPTGCGKTFVSLLICEHHLKKFPQGQKGKVVFFANQIPVYEQQKSVFSKYFERHGYRVTGISGATAENVPVEQIVENNDIIILTPQILVNNLKKGTIPSLSIFTLMIFDECHNTSKQHPYNMIMFNYLDQKLGGSSGPLPQVIGLTASVGVGDAKNTDEALDYICKLCASLDASVIATVKHNLEELEQVVYKPQKFFRKVESRISDKFKYIIAQLMRDTESLAKRICKDLENLSQIQNREFGTQKYEQWIVTVQKACMVFQMPDKDEESRICKALFLYTSHLRKYNDALIISEHARMKDALDYLKDFFSNVRAAGFDEIEQDLTQRFEEKLQELESVSRDPSNENPKLEDLCFILQEEYHLNPETITILFVKTRALVDALKNWIEGNPKLSFLKPGILTGRGKTNQNTGMTLPAQKCILDAFKASGDHNILIATSVADEGIDIAQCNLVILYEYVGNVIKMIQTRGRGRARGSKCFLLTSNAGVIEKEQINMYKEKMMNDSILRLQTWDEAVFREKILHIQTHEKFIRDSQEKPKPVPDKENKKLLCRKCKALACYTADVRVIEECHYTVLGDAFKECFVSRPHPKPKQFSSFEKRAKIFCARQNCSHDWGIHVKYKTFEIPVIKIESFVVEDIATGVQTLYSKWKDFHFEKIPFDPAEMSK

By UniProt entry, the sequences of proteins in these tests, tags left out. Residues count along the entry.
UniProt P03186, residues 1-235: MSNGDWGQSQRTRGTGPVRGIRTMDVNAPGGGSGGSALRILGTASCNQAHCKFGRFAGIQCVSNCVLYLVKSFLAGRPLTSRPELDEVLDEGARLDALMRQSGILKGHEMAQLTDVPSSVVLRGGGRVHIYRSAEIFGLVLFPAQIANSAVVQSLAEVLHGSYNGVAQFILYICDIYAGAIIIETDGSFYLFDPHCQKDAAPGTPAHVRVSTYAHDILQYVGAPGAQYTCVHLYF

Tests used:
[1] = biological target: FLAG-BPLF1 (aa 1-235), catalytically active N-terminal domain of BPLF1 (Epstein-Barr virus) (UniProt P03186); assay: co-IP; anti-FLAG agarose on lysates of transfected HeLa, U2OS or HEK293T cells (NP-40 lysis buffer), elution with 3xFLAG peptide, western blot; in Fig 7A with co-transfected HA-TRIM25, in Fig 5C with co-transfected HA- and FLAG-TRIM25
[2] = biological target: TRIM25 ubiquitin ligase (endogenous) (human (endogenous in HeLa, U2OS, HEK293T)), Q14258; assay: co-IP; endogenous TRIM25 immunoprecipitated with anti-TRIM25 antibody and protein-G Sepharose from lysates of HeLa cells transfected with FLAG-tagged plasmids, western blot; for RIG-I the cells were co-transfected with GST-2CARD; conditions: remark: other sources report otherwise
[3] = biological target: FLAG-BPLF1 (aa 1-235), catalytically active N-terminal domain of BPLF1 (Epstein-Barr virus) (UniProt P03186); assay: co-IP; told only in the discussion: RIG-I looked for in the BPLF1:14-3-3:TRIM25 complex (Fig 4); which immunoprecipitate was probed is not told

Binder | binding [1] | also measured
B1 | binds | –
B2 | binds | –
B3 | – | binding [2]: binds
B4 | – | binding [3]: no binding
